Reference: doi:10.1101/2021.05.23.445342
These are yes or no findings as the source states them, for the method shown. For some assays here: Binding seen in cells or lysates may run through a third protein. Some results given as binding are weak or reduced against the parent protein; the word gives no strength.

The chains behind the UniProt entries cited, without tags or fusion partners. Where a name states a change or a piece, a line headed by the entry shows the natural chain unless it says otherwise.
UniProt P13861: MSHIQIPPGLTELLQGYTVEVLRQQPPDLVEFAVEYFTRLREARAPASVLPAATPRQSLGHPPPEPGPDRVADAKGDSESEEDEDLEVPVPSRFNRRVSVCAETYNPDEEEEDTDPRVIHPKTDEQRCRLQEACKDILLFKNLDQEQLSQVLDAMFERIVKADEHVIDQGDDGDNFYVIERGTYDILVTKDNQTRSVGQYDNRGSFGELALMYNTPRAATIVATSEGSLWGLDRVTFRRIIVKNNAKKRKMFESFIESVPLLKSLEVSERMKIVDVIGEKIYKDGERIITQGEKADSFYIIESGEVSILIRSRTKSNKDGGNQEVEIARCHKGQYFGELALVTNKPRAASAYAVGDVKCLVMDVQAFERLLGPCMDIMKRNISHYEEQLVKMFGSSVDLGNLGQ

Experiments:
[1] = target: AKAP5c (AKAP5 300-427) (human) (UniProt P24588); assay: AUC
[2] = target: full-length AKAP5, NanoBiT fusions (AKAP5-LgBiT and AKAP5-SmBiT) (human) (UniProt P24588); assay: split reporter

| binding [1] | binding [2] | Substance |
| --- | --- | --- |
| no binding (tested: 70 µM) |  | AKAP5c (AKAP5 300-427) (from UniProt P24588 300-427) (domain or fragment) |
|  | binds | regulatory PKA subunit (R2A), NanoBiT fusion (from UniProt P13861 1-404) |
